Taken from: PubChem BioAssay AID602196 (INSERM, 2012)

Screen: 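Modifiers of cisplatin sensitivity in A549 cells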
Cell system: human A549 lung cancer cells
Knock-down reagent: siRNA pair against human genes
Duration: 48 h transfection before cisplatin; time from cisplatin to read-out not stated
Conditions: cisplatin at a dose killing half of control-siRNA cells; exact dose and duration not given
Measurement: 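Cisplatin cell death as a shift from the 50% death seen with control siRNA; siRNAs toxic or growth-blocking alone scored 0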
Direction: two-siRNA summed score (-2 to +2): higher = both siRNAs protect from cisplatin killing; -2 means both sensitise; mean protection from cisplatin (shift in death) and protection from cisplatin (shift in death), siRNA C and protection from cisplatin (shift in death), siRNA D: higher = protection from cisplatin killing
Active means: 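Each siRNA scores 0 if harmful alone by LDH or WST-1, otherwise +1 if it reduces and -1 if it increases cisplatin killing; a gene is active when both siRNAs agree (sum +2 or -2)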
Calls: active = both siRNAs shift cisplatin killing the same way; inactive = no consistent shift, or siRNA harmful alone
Shown is one part, drawn at random, of about 23,000 reagents tested. Over the whole deposit, 455 (2%) are marked active. 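Active includes both protection and sensitisation; some change values fall well beyond the stated -50 to +50 range.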 Reagents against one gene are numbered here. No sequences are given here. Not given: the amount of reagent.

target | reagent | two-siRNA summed score (-2 to +2) | mean protection from cisplatin (shift in death) (%) | protection from cisplatin (shift in death), siRNA C (%) | protection from cisplatin (shift in death), siRNA D (%) | outcome
CP | 1 | 0 | 5.4 | 9.3 | 1.6 | inactive
DCAF6 | 1 | 0 | -1.1 | 0.8 | -2.9 | inactive
DCAF6 | 2 | 0 | 7.7 | 9.4 | 6 | inactive
MGC72083 | 1 | 1 | 2 | -14.1 | 18.2 | inactive
JARID2 | 1 | 1 | 14.8 | 33.1 | -3.4 | inactive
RAB14 | 1 | -1 | -34.9 | -22.3 | -47.6 | inactive
APAF1 | 1 | 2 | 17.4 | 13.4 | 21.4 | active
GRSF1 | 1 | 1 | 1.2 | -6.9 | 9.3 | inactive
LINC00667 | 1 | 0 | 17.1 | 25.7 | 8.5 | inactive
PIGB | 1 | 0 | 7.5 | 4.6 | 10.4 | inactive
ZNF622 | 1 | 0 | 8.5 | 8.4 | 8.6 | inactive
ABCB9 | 1 | -1 | -36.7 | -25.3 | -48.1 | inactive
PTGER4P2-CDK2AP2P2 | 1 | 0 | 2.6 | -1.6 | 6.8 | inactive

Called active (from the list above):
target | reagent | two-siRNA summed score (-2 to +2) | mean protection from cisplatin (shift in death) (%) | protection from cisplatin (shift in death), siRNA C (%) | protection from cisplatin (shift in death), siRNA D (%) | outcome
APAF1 | 1 | 2 | 17.4 | 13.4 | 21.4 | active

Additional results follow.
target | reagent | two-siRNA summed score (-2 to +2) | mean protection from cisplatin (shift in death) (%) | protection from cisplatin (shift in death), siRNA C (%) | protection from cisplatin (shift in death), siRNA D (%) | outcome
LOC339875 | 1 | 1 | 14.4 | 16.8 | 12 | inactive
LOC400619 | 1 | 0 | 7 | 0.8 | 13.1 | inactive
ZNF75A | 1 | 1 | 5.7 | 2.3 | 9.1 | inactive
PRR23C | 1 | 0 | 9.9 | 11.2 | 8.6 | inactive
PRKCZ | 1 | 0 | 5.4 | 3.2 | 7.7 | inactive
BRAF | 1 | 0 | 6 | 12.4 | -0.4 | inactive
LOC442047 | 1 | 0 | 8.3 | 4.5 | 12.2 | inactive
SOX2 | 1 | 0 | 15.5 | 13.6 | 17.4 | inactive
CPEB2 | 1 | 0 | 12.3 | 4.5 | 20.2 | inactive
INHBA | 1 | 0 | 3.4 | 12 | -5.3 | inactive
NLRC4 | 1 | 0 | 5 | -3.7 | 13.7 | inactive
LOC389651 | 1 | 1 | 9.4 | 14.5 | 4.4 | inactive
CELF2 | 1 | 0 | 6.7 | 6 | 7.4 | inactive
KLHL28 | 1 | 0 | -2.1 | -7.3 | 3.1 | inactive
RANGRF | 1 | 0 | -2.5 | -1.3 | -3.6 | inactive
LOC389166 | 1 | 1 | 7.2 | 0.3 | 14 | inactive
C6orf118 | 1 | 0 | -2.7 | 7.2 | -12.6 | inactive
LOC440397 | 1 | 1 | 24.1 | 32.8 | 15.4 | inactive
BIN3 | 1 | 0 | -8.7 | -23.8 | 6.4 | inactive
SIGLEC8 | 1 | 0 | -6.2 | -1 | -11.4 | inactive
LOC441758 | 1 | 0 | 9.3 | 10.2 | 8.4 | inactive
BLOC1S4 | 1 | 0 | -8.3 | 4.1 | -20.7 | inactive
TJP1 | 1 | 0 | -0.3 | 3 | -3.6 | inactive
ADAT2 | 1 | 0 | -2.8 | -5 | -0.6 | inactive
RWDD4 | 1 | 1 | 14.3 | 15.3 | 13.4 | inactive
FAAP20 | 1 | 0 | -3.6 | -2.6 | -4.7 | inactive
